Results as given in patent US20210269519A1.
These are yes or no findings as the source states them, for the method shown. For some of these results: In cells and extracts the contact can be indirect. Some entries that bind do so weakly or less than the wild type. Tags and fused reporters may be left off the sequences shown.

Amino acid sequences for entries named in this document (tags omitted). A change or cut given only in a name is not applied to a line headed by its entry.
UniProt Q9UKV5: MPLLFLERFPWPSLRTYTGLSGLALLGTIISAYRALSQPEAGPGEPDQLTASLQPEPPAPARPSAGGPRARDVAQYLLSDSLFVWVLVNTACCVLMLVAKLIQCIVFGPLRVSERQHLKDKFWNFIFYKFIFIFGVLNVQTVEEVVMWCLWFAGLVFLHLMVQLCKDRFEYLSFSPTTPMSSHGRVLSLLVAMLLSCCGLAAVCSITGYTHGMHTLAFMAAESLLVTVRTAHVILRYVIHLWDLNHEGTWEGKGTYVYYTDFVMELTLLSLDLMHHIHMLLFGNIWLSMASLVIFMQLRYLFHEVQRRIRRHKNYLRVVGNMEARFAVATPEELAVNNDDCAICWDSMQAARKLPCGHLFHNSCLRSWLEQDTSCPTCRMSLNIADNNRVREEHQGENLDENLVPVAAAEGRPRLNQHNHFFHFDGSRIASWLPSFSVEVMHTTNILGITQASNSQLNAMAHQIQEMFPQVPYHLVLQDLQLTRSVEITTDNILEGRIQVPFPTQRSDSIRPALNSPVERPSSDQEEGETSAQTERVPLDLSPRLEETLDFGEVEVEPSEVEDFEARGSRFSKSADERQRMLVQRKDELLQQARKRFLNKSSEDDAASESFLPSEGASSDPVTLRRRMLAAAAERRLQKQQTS
UniProt P49841: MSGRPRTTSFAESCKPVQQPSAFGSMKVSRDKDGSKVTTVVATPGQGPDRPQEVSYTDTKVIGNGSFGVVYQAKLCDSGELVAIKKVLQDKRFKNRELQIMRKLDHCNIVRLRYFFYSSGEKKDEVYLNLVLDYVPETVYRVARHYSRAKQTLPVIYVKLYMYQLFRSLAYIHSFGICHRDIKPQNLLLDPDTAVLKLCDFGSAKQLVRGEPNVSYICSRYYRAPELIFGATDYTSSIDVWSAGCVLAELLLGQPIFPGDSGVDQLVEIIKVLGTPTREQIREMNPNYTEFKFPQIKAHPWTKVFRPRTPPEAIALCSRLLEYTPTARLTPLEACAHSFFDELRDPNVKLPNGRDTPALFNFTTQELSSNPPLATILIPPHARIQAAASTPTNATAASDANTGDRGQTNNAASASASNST
UniProt O75581: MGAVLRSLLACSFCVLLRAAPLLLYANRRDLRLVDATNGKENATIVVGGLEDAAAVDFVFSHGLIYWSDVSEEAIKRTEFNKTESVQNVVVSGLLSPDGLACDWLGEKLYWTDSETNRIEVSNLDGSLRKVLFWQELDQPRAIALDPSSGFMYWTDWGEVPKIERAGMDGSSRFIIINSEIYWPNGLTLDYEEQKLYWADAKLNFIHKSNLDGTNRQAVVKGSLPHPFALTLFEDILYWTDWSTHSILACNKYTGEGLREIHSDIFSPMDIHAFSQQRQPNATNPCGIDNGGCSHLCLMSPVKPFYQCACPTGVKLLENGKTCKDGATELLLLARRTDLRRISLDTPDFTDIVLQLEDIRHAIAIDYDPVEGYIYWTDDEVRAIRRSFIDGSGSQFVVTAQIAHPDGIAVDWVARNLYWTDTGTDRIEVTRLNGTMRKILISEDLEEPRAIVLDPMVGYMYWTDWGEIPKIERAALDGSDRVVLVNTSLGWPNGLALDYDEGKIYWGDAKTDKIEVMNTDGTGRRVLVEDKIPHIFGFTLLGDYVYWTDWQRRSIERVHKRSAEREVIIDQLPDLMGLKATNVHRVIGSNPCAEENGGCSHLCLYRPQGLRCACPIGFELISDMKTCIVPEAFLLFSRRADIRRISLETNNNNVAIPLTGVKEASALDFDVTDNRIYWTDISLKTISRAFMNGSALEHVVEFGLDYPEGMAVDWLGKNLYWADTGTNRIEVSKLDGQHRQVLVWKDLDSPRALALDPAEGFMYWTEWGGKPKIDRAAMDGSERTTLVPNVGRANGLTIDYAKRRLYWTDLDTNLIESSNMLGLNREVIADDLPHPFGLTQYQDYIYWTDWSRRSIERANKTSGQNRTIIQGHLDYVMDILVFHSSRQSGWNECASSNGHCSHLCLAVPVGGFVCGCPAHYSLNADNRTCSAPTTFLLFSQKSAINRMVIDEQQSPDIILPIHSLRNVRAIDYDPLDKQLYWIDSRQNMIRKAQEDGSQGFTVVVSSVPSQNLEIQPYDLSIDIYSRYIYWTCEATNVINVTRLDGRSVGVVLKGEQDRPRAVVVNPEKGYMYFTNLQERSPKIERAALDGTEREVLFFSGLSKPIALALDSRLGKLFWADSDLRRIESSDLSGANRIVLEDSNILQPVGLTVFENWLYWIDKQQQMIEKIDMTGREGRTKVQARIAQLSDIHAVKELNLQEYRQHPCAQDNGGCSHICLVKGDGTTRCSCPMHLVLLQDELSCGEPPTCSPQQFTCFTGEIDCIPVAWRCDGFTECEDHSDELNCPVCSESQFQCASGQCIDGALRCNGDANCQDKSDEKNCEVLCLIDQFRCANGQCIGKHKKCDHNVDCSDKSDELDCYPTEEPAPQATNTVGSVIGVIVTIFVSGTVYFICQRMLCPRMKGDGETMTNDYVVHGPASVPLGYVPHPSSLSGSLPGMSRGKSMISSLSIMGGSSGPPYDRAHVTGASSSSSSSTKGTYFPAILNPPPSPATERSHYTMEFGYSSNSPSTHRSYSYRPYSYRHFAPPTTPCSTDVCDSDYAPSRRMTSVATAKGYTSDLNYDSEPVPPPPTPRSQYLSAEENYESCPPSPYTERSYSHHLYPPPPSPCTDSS
UniProt Q9ULT6: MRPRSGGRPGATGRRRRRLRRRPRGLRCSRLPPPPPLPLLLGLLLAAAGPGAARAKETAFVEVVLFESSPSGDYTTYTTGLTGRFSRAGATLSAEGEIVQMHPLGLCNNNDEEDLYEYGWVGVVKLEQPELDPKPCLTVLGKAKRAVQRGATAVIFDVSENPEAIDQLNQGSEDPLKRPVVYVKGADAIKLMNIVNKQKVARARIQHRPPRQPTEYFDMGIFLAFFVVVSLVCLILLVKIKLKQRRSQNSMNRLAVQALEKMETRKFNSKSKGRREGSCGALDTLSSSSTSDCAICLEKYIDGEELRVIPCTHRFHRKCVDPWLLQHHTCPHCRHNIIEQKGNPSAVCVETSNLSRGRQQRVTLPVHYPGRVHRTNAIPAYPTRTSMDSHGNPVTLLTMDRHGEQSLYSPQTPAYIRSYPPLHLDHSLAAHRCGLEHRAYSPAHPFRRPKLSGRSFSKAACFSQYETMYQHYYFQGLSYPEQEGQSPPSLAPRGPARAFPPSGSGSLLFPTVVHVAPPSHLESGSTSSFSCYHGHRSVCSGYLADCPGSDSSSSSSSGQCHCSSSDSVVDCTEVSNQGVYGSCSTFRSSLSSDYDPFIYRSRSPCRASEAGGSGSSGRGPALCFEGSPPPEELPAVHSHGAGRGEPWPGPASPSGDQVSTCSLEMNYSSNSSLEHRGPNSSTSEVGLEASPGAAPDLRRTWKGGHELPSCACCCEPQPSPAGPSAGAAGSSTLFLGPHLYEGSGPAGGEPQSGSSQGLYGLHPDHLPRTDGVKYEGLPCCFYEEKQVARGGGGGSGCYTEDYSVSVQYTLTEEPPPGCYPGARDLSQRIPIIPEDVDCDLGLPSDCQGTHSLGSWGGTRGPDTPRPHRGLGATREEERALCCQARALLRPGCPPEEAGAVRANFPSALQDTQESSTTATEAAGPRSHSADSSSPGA

Legend:
[1] = target: T1, Flag tagged-human Lmbr1l (limb region 1 like, LMBR1L) (human) (UniProt Q6UX01); assay: anti-FLAG co-IP from HEK293T lysate + LC-MS/MS
T1 sequence: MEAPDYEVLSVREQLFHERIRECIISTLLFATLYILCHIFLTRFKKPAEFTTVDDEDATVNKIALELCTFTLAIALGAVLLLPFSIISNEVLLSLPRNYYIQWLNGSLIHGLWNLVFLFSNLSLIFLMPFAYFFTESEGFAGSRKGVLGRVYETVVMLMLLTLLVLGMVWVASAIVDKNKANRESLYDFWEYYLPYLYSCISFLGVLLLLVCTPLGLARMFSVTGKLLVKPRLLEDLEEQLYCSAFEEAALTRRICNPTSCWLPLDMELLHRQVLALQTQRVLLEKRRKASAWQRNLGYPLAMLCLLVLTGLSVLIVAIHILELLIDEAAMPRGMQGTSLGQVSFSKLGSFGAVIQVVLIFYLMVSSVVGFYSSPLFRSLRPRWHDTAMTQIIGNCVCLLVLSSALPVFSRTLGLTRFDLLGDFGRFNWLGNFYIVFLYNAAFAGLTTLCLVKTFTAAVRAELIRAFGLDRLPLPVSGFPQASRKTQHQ

[2] = target: T1, Flag tagged-human Lmbr1l (limb region 1 like, LMBR1L) (human); assay: anti-FLAG co-IP from HEK293T lysate + LC-MS/MS, vs empty vector
[3] = target: β-catenin (human protein on the ProtoArray) (human) (UniProt P35222); assay: ProtoArray human protein microarray probed with Flag-human LMBR1L-V5
[4] = target: FLAG-tagged GP78 (Homo sapiens (Human)) (UniProt Q9UKV5); assay: co-IP (anti-FLAG M2 agarose) from co-transfected HEK293T cells, anti-HA immunoblot
[5] = target: FLAG-tagged GSK-3β (Homo sapiens (Human)) (UniProt P49841); assay: as above
[6] = target: FLAG-tagged LRP6 (Homo sapiens (Human)) (UniProt O75581); assay: as above
[7] = target: T2, FLAG-tagged UBAC2 (Homo sapiens (Human)) (UniProt Q8NBM4); assay: as above
T2 sequence: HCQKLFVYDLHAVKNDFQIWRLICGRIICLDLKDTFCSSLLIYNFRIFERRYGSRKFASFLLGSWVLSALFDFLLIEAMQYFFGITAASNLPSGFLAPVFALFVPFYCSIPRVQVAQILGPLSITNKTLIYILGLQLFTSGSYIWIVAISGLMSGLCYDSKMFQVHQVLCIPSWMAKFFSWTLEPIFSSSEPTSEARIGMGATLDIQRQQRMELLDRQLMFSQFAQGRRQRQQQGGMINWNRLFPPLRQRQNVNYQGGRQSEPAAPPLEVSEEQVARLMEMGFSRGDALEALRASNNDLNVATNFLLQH

[8] = target: T3, FLAG-tagged UBXD8 (Homo sapiens (Human)) (UniProt Q96CS3); assay: as above
T3 sequence: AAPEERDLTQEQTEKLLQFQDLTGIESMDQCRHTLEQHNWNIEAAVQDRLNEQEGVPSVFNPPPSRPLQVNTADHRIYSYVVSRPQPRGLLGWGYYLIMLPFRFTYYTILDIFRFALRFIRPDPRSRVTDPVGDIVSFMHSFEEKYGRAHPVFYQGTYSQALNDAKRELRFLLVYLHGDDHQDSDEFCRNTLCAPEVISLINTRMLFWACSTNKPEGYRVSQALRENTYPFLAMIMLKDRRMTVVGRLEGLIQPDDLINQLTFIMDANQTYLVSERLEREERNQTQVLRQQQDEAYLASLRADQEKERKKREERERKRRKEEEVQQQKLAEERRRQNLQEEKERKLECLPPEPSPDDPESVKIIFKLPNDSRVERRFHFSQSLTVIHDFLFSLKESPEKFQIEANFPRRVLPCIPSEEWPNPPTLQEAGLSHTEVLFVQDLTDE

[9] = target: FLAG-tagged VCP (Homo sapiens (Human)) (UniProt P55072); assay: as above
[10] = target: FLAG-tagged ZNRF3 (Homo sapiens (Human)) (UniProt Q9ULT6); assay: as above
[11] = target: FLAG-tagged β-catenin (Homo sapiens (Human)) (UniProt P35222); assay: as above
[12] = target: FLAG-tagged GSK-3β (Homo sapiens (Human)) (UniProt P49841); assay: co-IP (anti-FLAG M2 agarose) from co-transfected HEK293T cells, anti-HA immunoblot (FIG. 4B)
[13] = target: FLAG-tagged LRP6 (Homo sapiens (Human)) (UniProt O75581); assay: as above
[14] = target: FLAG-tagged ZNRF3 (Homo sapiens (Human)) (UniProt Q9ULT6); assay: as above
[15] = target: FLAG-tagged β-catenin (Homo sapiens (Human)) (UniProt P35222); assay: as above
[16] = target: FLAG-tagged GP78 (Homo sapiens (Human)) (UniProt Q9UKV5); assay: co-IP (anti-FLAG M2 agarose) from co-transfected HEK293T cells, anti-HA immunoblot (FIG. 19)
[17] = target: T2, FLAG-tagged UBAC2 (Homo sapiens (Human)); assay: as above
[18] = target: T3, FLAG-tagged UBXD8 (Homo sapiens (Human)); assay: as above
[19] = target: FLAG-tagged VCP (Homo sapiens (Human)) (UniProt P55072); assay: as above

Measured: binding

B1: β-catenin (CTNNB1) (protein)
chain: MELDMAMEPDRKAAVSHWQQQSYLDSGIHSGATTTAPSLSGKGNPEEEDVDTSQVLYEWEQGFSQSFTQEQVADIDGQYAMTRAQRVRAAMFPETLDEGMQIPSTQFDAAHPTNVQRLAEPSQMLKHAVVNLINYQDDAELATRAIPELTKLLNDEDQVVVNKAAVMVHQLSKKEASRHAIMRSPQMVSAIVRTMQNTNDVETARCTAGTLHNLSHHREGLLAIFKSGGIPALVKMLGSPVDSVLFYAITTLHNLLLHQEGAKMAVRLAGGLQKMVALLNKTNVKFLAITTDCLQILAYGNQESKLIILASGGPQALVNIMRTYTYEKLLWTTSRVLKVLSVCSSNKPAIVEAGGMQALGLHLTDPSQRLVQNCLWTLRNLSDAATKQEGMEGLLGTLVQLLGSDDINVVTCAAGILSNLTCNNYKNKMMVCQVGGIEALVRTVLRAGDREDITEPAICALRHLTSRHQEAEMAQNAVRLHYGLPVVVKLLHPPSHWPLIKATVGLIRNLALCPANHAPLREQGAIPRLVQLLVRAHQDTQRRTSMGGTQQQFVEGVRMEEIVEGCTGALHILARDVHNRIVIRGLNTIPLFVQLLYSPIENIQRVAAGVLCELAQDKEAAEAIEAEGATAPLTELLHSRNEGVATYAAAVLFRMSEDKPQDYKKRLSVELTSSLFRTEPMAWNETADLGLDIGAQGEPLGYRQDDPSYRSFHSGGYGQDALGMDPMMEHEMGGHHPGADYPVDGLPDLGHAQDLMDGLPPGDSNQLAWFDTDL
binds: [1] | [2]

B2: Flag-human LMBR1L-V5 (N-terminus FLAG-tagged and C-terminus V5-tagged recombinant human LMBR1L) (receptor, not shown: small tags and cut ends)
chain: MEAPDYEVLSVREQLFHERIRECIISTLLFATLYILCHIFLTRFKKPAEFTTVDDEDATVNKIALELCTFTLAIALGAVLLLPFSIISNEVLLSLPRNYYIQWLNGSLIHGLWNLVFLFSNLSLIFLMPFAYFFTESEGFAGSRKGVLGRVYETVVMLMLLTLLVLGMVWVASAIVDKNKANRESLYDFWEYYLPYLYSCISFLGVLLLLVCTPLGLARMFSVTGKLLVKPRLLEDLEEQLYCSAFEEAALTRRICNPTSCWLPLDMELLHRQVLALQTQRVLLEKRRKASAWQRNLGYPLAMLCLLVLTGLSVLIVAIHILELLIDEAAMPRGMQGTSLGQVSFSKLGSFGAVIQVVLIFYLMVSSVVGFYSSPLFRSLRPRWHDTAMTQIIGNCVCLLVLSSALPVFSRTLGLTRFDLLGDFGRFNWLGNFYIVFLYNAAFAGLTTLCLVKTFTAAVRAELIRAFGLDRLPLPVSGFPQASRKTQHQ
binds: [3]

B3: HA-tagged LMBR1L (receptor, not shown: small tags and cut ends)
chain: MEAPDYEVLSVREQLFHERIRECIISTLLFATLYILCHIFLTRFKKPAEFTTVDDEDATVNKIALELCTFTLAIALGAVLLLPFSIISNEVLLSLPRNYYIQWLNGSLIHGLWNLVFLFSNLSLIFLMPFAYFFTESEGFAGSRKGVLGRVYETVVMLMLLTLLVLGMVWVASAIVDKNKANRESLYDFWEYYLPYLYSCISFLGVLLLLVCTPLGLARMFSVTGKLLVKPRLLEDLEEQLYCSAFEEAALTRRICNPTSCWLPLDMELLHRQVLALQTQRVLLEKRRKASAWQRNLGYPLAMLCLLVLTGLSVLIVAIHILELLIDEAAMPRGMQGTSLGQVSFSKLGSFGAVIQVVLIFYLMVSSVVGFYSSPLFRSLRPRWHDTAMTQIIGNCVCLLVLSSALPVFSRTLGLTRFDLLGDFGRFNWLGNFYIVFLYNAAFAGLTTLCLVKTFTAAVRAELIRAFGLDRLPLPVSGFPQASRKTQHQ
not listed: [1] | [2] | [3]
binds: all other assays above
